{"sequences": {"note": "Protein sequences, listed by entry. Tags and fused reporters are not part of them. Lines headed by an entry give the natural chain unless they say otherwise; changes in a name come on top.", "UniProt P51570": "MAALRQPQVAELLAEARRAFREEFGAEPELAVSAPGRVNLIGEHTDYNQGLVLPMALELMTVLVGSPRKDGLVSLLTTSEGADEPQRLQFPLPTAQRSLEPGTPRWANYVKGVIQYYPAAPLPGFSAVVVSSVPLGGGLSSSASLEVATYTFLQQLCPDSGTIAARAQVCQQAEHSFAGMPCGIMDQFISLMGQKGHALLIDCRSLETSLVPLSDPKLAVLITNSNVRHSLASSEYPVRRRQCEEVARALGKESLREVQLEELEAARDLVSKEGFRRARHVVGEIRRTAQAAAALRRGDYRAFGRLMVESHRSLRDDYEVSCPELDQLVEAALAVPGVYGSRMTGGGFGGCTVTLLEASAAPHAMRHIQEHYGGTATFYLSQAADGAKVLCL"}, "source": "PubChem BioAssay AID720664", "about": "(National Center for Advancing Translational Sciences (NCATS), 2013)", "note": "Inconclusive means that the source gave no clear call. Such entries were picked first, then a sample of the others. A potency beside an inconclusive call is a rough fit, not a confirmed value. The source made the active and inactive calls. Calls come from the whole dose curve; as a rule, active = well fitted inhibition curve with a large enough effect; inconclusive = small, poorly fitted or top-dose-only effect; inactive = flat fitted curve, though single readings scatter."}
{"molecular_target": "Galactokinase (Homo sapiens) (UniProt P51570)", "experiment": "qHTS for Inhibitors of Human Galactokinase (GALK): SAR round 3", "settings": "ADP detection luminescence, 1 h; series mostly up to 57.5 µM", "source_text": "Inherited deficiency of galactose-1-phosphate uridyltransferase (GALT) can result in a potentially lethal disorder called Classic Galactosemia (OMIM 230400). Several lines of evidence indicate that an elevated level of galactose-1-phosphate (gal-1-p), the product of galactokinase (GALK), is a major, if not sole, pathogenic mechanism in patients with classic galactosemia. Therefore, finding inhibitors of GALK is a potential novel therapy for this inherent metabolic disease and is the long term goal of this project. Active compounds observed in the qHTS GALK assay (AID: 1868) were cherry picked and re-screened for validation. GALK (provided by Kent Lai) was assayed using ATP and D-(+)-Galactose (Sigma-Aldrich cat# G0750) as substrates. Promega ADP-Glo technology was used to detect the ADP product formed after the kinase reaction. Kinase reactions with and without GALK were used as negative and positive controls together with Protein Tyrosine Phosphatase CD45 inhibitor (EMD Bioscience cat# 540215) which is shown to inhibit GALK activity. Decrease in activity corresponds to inhibition of the enzyme, the desired outcome for this assay. NIH Molecular Libraries Probe Production Network [MLPCN] NIH Chemical Genomics Center [NCGC] Grant: MH085689-01 PI Name: Kent Lai, University of Utah\nThree uL/well of ATP-buffer solution (35 uM ATP, 20mM HEPES pH8.0, 5 mM MgCl2, 60 mM NaCl, 1 mM DTT, 0.01% BSA final concentration) was dispensed into 1536-well, assay plates (Greiner, solid white medium-binding plates) with Aurora Discovery BioRAPTR Flying Reagent Dispenser (FRD; Beckton-Dickenson). Compound and control solution (23 nL) was transferred to the assay plate using the Kalypsys 1536-pin tool apparatus. One uL/well GALK-galactose solution (5 nM GALK, 100 uM galactose, 20 mM HEPES pH8.0, 5 mM MgCl2, 60 mM NaCl, 1 mM DTT, 0.01% BSA final concentration) was then added using the FRD yielding a total kinase reaction volume of 4 uL/ well. After 1 hour of room temperature incubation, 4 uL Kinase-Glo Plus reagent was added for a final assay volume of 8 uL/well. Luminescence was detected with the ViewLux plate reader (Perkin Elmer, Waltham, MA) after 2 min incubation using a 1 sec exposure time and 2x binning."}
{"smiles": "COC(=O)c1ccccc1NC(=O)c1ccccc1OC(F)F", "Potency": "inactive"}
{"smiles": "Cc1ccc2oc(NC3=NC4(CCCC4)C4=C(CCCC4=O)N3)nc2c1", "Potency": "inconclusive: 19.3 µM [inhibitor, partial curve]"}
{"smiles": "O=C1CCCC2=C1C(c1ncccc1C(F)(F)F)N=C(Nc1nc3ccccc3o1)N2", "note": "(stereo not given)", "Potency": "inconclusive: 12.2 µM [inhibitor, partial curve]"}
{"smiles": "CC1=C(C(=O)NC2CCCC2)C(c2nn(C)cc2Cl)N=C(Nc2nc3ccccc3o2)N1", "note": "(stereo not given)", "Potency": "inconclusive: 19.3 µM [inhibitor, partial curve]"}
{"smiles": "COc1ccc(NC(=O)C2=C(C)NC(Nc3nc4ccccc4o3)=NC2c2ccccc2Br)cc1", "note": "(stereo not given)", "Potency": "inconclusive: 5.44 µM [inhibitor, full curve]"}
{"smiles": "O=C1CCCC2=C1C1(CCC1)N=C(Nc1nc3ccccc3o1)N2", "Potency": "inconclusive: 27.3 µM [inhibitor, partial curve, poor fit]"}
{"smiles": "O=C1CCCC2=C1C1(CCSCC1)N=C(Nc1nc3ccccc3o1)N2", "Potency": "active: 3.43 µM"}
{"smiles": "O=C1CCCC2=C1C1(CCS(=O)(=O)C1)N=C(Nc1nc3ccccc3o1)N2", "note": "(stereo not given)", "Potency": "inconclusive: 7.69 µM [inhibitor, full curve]"}
{"smiles": "CC1=C(C(=O)Nc2ccccc2)C(c2ccccc2Br)N=C(Nc2nc3ccccc3o2)N1", "note": "(stereo not given)", "Potency": "inconclusive: 9.68 µM [inhibitor, full curve]"}
{"smiles": "CC1=C(C(=O)NC2CCCCC2)C(c2ccccc2Br)N=C(Nc2nc3ccccc3o2)N1", "note": "(stereo not given)", "Potency": "inconclusive: 13.7 µM [inhibitor, full curve, poor fit]"}
{"smiles": "CNC(=O)C1=C(C)NC(Nc2nc3ccccc3o2)=NC12CCCC2", "Potency": "inactive"}
{"smiles": "CC1=C(C(=O)Nc2noc3ccccc23)C(c2nn(C)cc2Cl)N=C(Nc2nc3ccccc3o2)N1", "note": "(stereo not given)", "Potency": "inactive"}
{"smiles": "O=C1CCCC2=C1C(c1ccn[nH]1)N=C(Nc1nc3ccccc3o1)N2", "note": "(stereo not given)", "Potency": "inconclusive: 21.7 µM [inhibitor, partial curve]"}
{"smiles": "CNC(=O)C1=C(C)NC(Nc2nc3ccccc3o2)=NC1c1nn(C)cc1Cl", "note": "(stereo not given)", "Potency": "inconclusive: 19.3 µM [inhibitor, partial curve]"}
{"smiles": "CCc1ccc2oc(NC3=NC(c4[nH]ncc4Cl)C4=C(CCCC4=O)N3)nc2c1", "note": "(stereo not given)", "Potency": "inconclusive: 24.3 µM [inhibitor, partial curve]"}
{"smiles": "CC1=C(C(=O)Nc2nncs2)C(c2[nH]ncc2Cl)N=C(Nc2nc3ccccc3o2)N1", "note": "(stereo not given)", "Potency": "active: 12.2 µM"}
{"smiles": "CC1=C(C(=O)Nc2ccon2)C(c2ccccc2Br)N=C(Nc2nc3ccccc3o2)N1", "note": "(stereo not given)", "Potency": "inconclusive: 17.2 µM [inhibitor, partial curve]"}
{"smiles": "O=C1CCCC2=C1C(c1cccc(Cl)c1)N=C(Nc1nc3ccccc3o1)N2", "note": "(stereo not given)", "Potency": "inactive"}
{"smiles": "COc1ccccc1C1N=C(Nc2nc3ccccc3o2)NC2=C1C(=O)CCC2", "note": "(stereo not given)", "Potency": "inactive"}
{"smiles": "Cc1cc(C2N=C(Nc3nc4ccccc4o3)NC3=C2C(=O)CCC3)n[nH]1", "note": "(stereo not given)", "Potency": "inconclusive: 21.7 µM [inhibitor, partial curve]"}
{"smiles": "CC1(C)CC(=O)C2=C(C1)NC(Nc1nc3ccccc3o1)=NC21CCCC1", "Potency": "inactive"}
{"smiles": "CC1=C(C(=O)Nc2ccon2)C2(CCCC2)N=C(Nc2nc3ccccc3o2)N1", "Potency": "active: 17.2 µM"}
{"smiles": "CC1=C(C(=O)NC2CC2)C(c2nn(C)cc2Cl)N=C(Nc2nc3ccccc3o2)N1", "note": "(stereo not given)", "Potency": "inactive"}
{"smiles": "O=C1CCCC2=C1C1(CCCC1)N=C(Nc1nc3cc(Br)ccc3o1)N2", "Potency": "inconclusive: 10.9 µM [inhibitor, partial curve]"}
{"smiles": "O=C1CCC2=C1C(c1ccccc1Cl)N=C(Nc1nc3ccccc3o1)N2", "note": "(stereo not given)", "Potency": "inconclusive: 21.7 µM [inhibitor, partial curve]"}
{"smiles": "CC1=C(C(=O)NCc2ccccc2)C(c2ccccc2Br)N=C(Nc2nc3ccccc3o2)N1", "note": "(stereo not given)", "Potency": "inconclusive: 9.68 µM [inhibitor, full curve]"}
{"smiles": "O=C1CCCC2=C1C1(CCSC1)N=C(Nc1nc3ccccc3o1)N2", "note": "(stereo not given)", "Potency": "active: 19.3 µM"}
{"smiles": "CNC(=O)C1=C(C)NC(Nc2nc3ccccc3o2)=NC1c1[nH]ncc1Cl", "note": "(stereo not given)", "Potency": "inconclusive: 27.3 µM [inhibitor, partial curve]"}
{"smiles": "CC1=C(C(=O)Nc2ccccc2C)C(c2ccccc2Br)N=C(Nc2nc3ccccc3o2)N1", "note": "(stereo not given)", "Potency": "inconclusive: 9.68 µM [inhibitor, full curve]"}
{"smiles": "O=C1CC(c2ccccc2)CC2=C1C1(CCCCC1)N=C(Nc1nc3ccccc3o1)N2", "note": "(stereo not given)", "Potency": "inactive"}
{"smiles": "O=C1CCCC2=C1C(c1ccccc1Cl)N=C(c1ccccn1)N2", "note": "(stereo not given)", "Potency": "inactive"}
{"smiles": "O=C1CCC2=C1C1(CCCC1)N=C(Nc1nc3ccccc3o1)N2", "Potency": "inconclusive: 21.7 µM [inhibitor, partial curve]"}
{"smiles": "CC1=C(C(=O)Nc2noc3ccccc23)C2(CCCC2)N=C(Nc2nc3ccccc3o2)N1", "Potency": "inactive"}
{"smiles": "O=C1CCCC2=C1C(c1ccccc1I)N=C(Nc1nc3ccccc3o1)N2", "note": "(stereo not given)", "Potency": "active: 6.11 µM"}
{"smiles": "COc1ccc2oc(NC3=NC(c4[nH]ncc4Cl)C4=C(CCCC4=O)N3)nc2c1", "note": "(stereo not given)", "Potency": "inconclusive: 24.3 µM [inhibitor, partial curve]"}
{"smiles": "O=C1CCCC2=C1C(c1ccccc1Cl)N=C(Nc1nc3cc(F)ccc3o1)N2", "note": "(stereo not given)", "Potency": "inconclusive: 6.11 µM [inhibitor, full curve, poor fit]"}
{"smiles": "O=C1C2=C(CN1Cc1ccccc1)NC(Nc1nc3ccccc3o1)=NC2c1ccccc1Cl", "note": "(stereo not given)", "Potency": "inactive"}
{"smiles": "CC1=C(C(=O)Nc2nnc(-c3ccccc3)s2)C(c2nn(C)cc2Cl)N=C(Nc2nc3ccccc3o2)N1", "note": "(stereo not given)", "Potency": "inconclusive: 3.85 µM [inhibitor, full curve]"}
{"smiles": "O=C1CCCC2=C1C(c1[nH]ncc1Cl)N=C(c1nc3ccccc3o1)N2", "note": "(stereo not given)", "Potency": "inactive"}
{"smiles": "CC(C)CN1CC2=C(C1=O)C(c1ccccc1Cl)N=C(Nc1nc3ccccc3o1)N2", "note": "(stereo not given)", "Potency": "inactive"}
